Literature values as cited in patent US6815183B1, “Plasmodium sp. chitinase” (The Board of Regents of the University of Texas System, priority 1999, dated 2004).
For at least one compound, name, drawing or mass did not settle the structure.

Tested on: P. falciparum in A. freeborni
Details: Shahabuddin et al. 1993; species not stated; cited from earlier work

CC(=O)N[C@H]1[C@H](O[C@H]2[C@@H](O)[C@@H](NC(C)=O)[C@H](O[C@H]3[C@H](O)[C@H]4N=C(N(C)C)O[C@H]4[C@@H]3CO)O[C@@H]2CO)O[C@H](CO)[C@@H](O)[C@H]1O [allosamidin]
allosamidin concentration sufficient to block oocyst development in vivo: 0.1 to 1.0 mM
